These are yes or no findings as the source states them, for the method shown. Some binding calls cover weakened binding; strength is not graded here.
Tests used:
human CD47-ECD = molecular target: T1, human CD47-ECD (human, UniProt Q08722 19-139, limits assumed, N-terminal pyroglutamate (seen in the crystal structure)); experiment: ELISA (figure legend)
T1 construct: extracellular domain; also called recombinant CD47-ECD; CD47 ECD protein

Amino acid sequences for entries named in this document (tags omitted). A change or cut given only in a name is not applied to a line headed by its entry. Residues count along the entry.
UniProt Q08722: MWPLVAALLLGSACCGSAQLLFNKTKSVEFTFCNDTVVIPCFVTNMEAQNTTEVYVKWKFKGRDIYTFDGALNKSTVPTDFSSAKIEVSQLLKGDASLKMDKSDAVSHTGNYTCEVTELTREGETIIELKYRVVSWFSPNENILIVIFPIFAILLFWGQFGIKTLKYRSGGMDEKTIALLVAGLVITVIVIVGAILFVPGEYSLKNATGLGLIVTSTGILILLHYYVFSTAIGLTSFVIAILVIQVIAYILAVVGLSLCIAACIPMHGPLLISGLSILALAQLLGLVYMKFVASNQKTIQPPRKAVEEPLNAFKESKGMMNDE
CD47 on human red blood cells: residues 19-323 of Q08722

[1] = molecular target: CD47 on human red blood cells (human) (UniProt Q08722); experiment: RBC binding assay (figure legend)
[2] = molecular target: CD47 on human red blood cells (human) (UniProt Q08722); experiment: RBC binding assay (flow cytometry)
human CD47 on Raji cells = molecular target: T2, human CD47 on Raji cells (human, UniProt Q08722 19-323); experiment: flow cytometry on Raji cells (figure legend)
T2 construct: whole, on cells; also called CD47+ Raji cells; CD47-bearing Raji cells

[3] = molecular target: CD47 on human red blood cells (human) (UniProt Q08722); experiment: flow cytometry on human RBCs, Donor 1 and Donor 2

Measured: binding

B1: CD47 antibody 34C5 (antibody, V domains shown)
VH: QVQLVQSGAEVKKPGSSVKVSCKASGYTFSSYYMHWVRQAPGQGLEWMGEINPNNARINFNEKFKTRVTLTVDKSTSTAYMELSSLRSEDTAVYYCTRGYYRYGAWFGYWGQGTLVTVSS
VL: DIQMTQSPSSLSASVGDRVTITCRASQDISDYLNWYQQKPGKAPKLLIYYISRLHSGVPSRFSGSGSGTDYTLTISSLQPEDFATYYCQQGHTLPWTFGGGTKVEIK
binds: all assays above

— patent US20200407441A1 (I MAB BIOPHARMA US, published 2020)
